According to the supplement of paper PMC4683952:
This is one part of the list. Rule as the data show it: active = 2 or more and inactive = the rest. This data set is noisy: repeats of one test often differ as much as different tests do.

system: Lgr5 (MarsCy1-Lgr5-EGFP, U2OS); assay: cell-surface Lgr5 expression (SCi1 fluorescence, background-subtracted) relative to WT DMSO (fold of DMSO control); higher = more Lgr5 at the plasma membrane; conditions: U2OS MarsCy1-Lgr5-EGFP stable; treatment time: overnight; library: ActiProbe-5K (TimTec); 25 µM

cell-surface Lgr5 expression, inactive:
CCOC(=O)c1[nH]c(C)c(CC(C)C)c1C 1.38
Cc1cc(O)nc(C(C)C)n1 1.1
N#Cc1sc2nc3c(c(-c4cccnc4)c2c1N)CCC3 1.08
CN1C(=O)/C(=N/NC2=NS(=O)(=O)c3ccccc32)c2ccccc21 1.13
O=C(c1cc(O)ccc1O)c1coc2ccc(O)cc12 1.54
NC(=O)NCC12CC3CC(CC(C3)C1)C2 1.05
Cn1cc(Cl)c(C(=O)O)n1 0.956
CCCc1cc(CN)on1 1.07
O=C(CSc1ncccn1)NC1CCSC1=O (centres undefined) 1.23
O=[N+]([O-])c1ccc(/C=N\c2ccc(Cl)c([N+](=O)[O-])c2)o1 1.91
Br.Nc1ccc(OCC[n+]2ccc(CCS(=O)(=O)[O-])cc2)cc1 1.62
CN1CCN(C(=O)CSc2nc3c(c(C(F)(F)F)c2C#N)CCC3)CC1 1.15
O=C(CCCCCCC(=O)N/N=C/c1ccc([N+](=O)[O-])o1)N/N=C\c1ccc([N+](=O)[O-])o1 1.35
CS(=O)(=O)c1nnnn1-c1cccc2ccccc12 0.767
CS(=O)(=O)Nc1ccccc1F 1.12
CN(Cc1cccs1)C(=S)SCc1cccs1 1.42
Nc1nc2c(s1)COc1ccccc1-2 0.923
O=C(/C=C/N1CCCCC1)c1cccs1 1.13
CS(=O)(=O)N1CCN(c2ccc([N+](=O)[O-])cc2Cl)CC1 1.11
COc1ccc2c(c1OC)C(=O)N1C(C(=O)O)CSC21 (centres undefined) 1.65
COc1ccc(OC)c(S(=O)(=O)NCCOC23CC4CC(CC(C4)C2)C3)c1 0.832
Clc1ccc(/C=N\N=c2\[nH]c(-c3ccccc3)cs2)cc1 1.77
CSc1nc(SCC(=O)C(C)C)nc(N)c1C#N 1.12
C1CCCCC(NC(C2C(CC=CC2)C(C\C(=C(\Cl)Cl)Cl)=O)=O)C1 (centres undefined) 1.14
CCCCOCC(S)CNC(N)=O (centres undefined) 1.07
Cc1cc(=O)cc(C)n1NC(N)=S 0.996
FC(F)(F)c1ccc(/C=N/n2c(S)nnc2-c2ccco2)cc1 1.07
C1(/C2CC3CC(C2)CC1C3)=C\C(=O)N 1.35
N#C/C(=C\Nc1ncccc1Cl)C(N)=S 1.09
CC(=O)CSc1sc2c(O)cc(=O)[nH]c2c1C#N 1.14
c1c(-c2csnn2)cc(-c2csnn2)cc1-c1csnn1 1.92
O=S(=O)(c1ccc2ccccc2c1)N1CCSC1c1ccccc1 (centres undefined) 1.44
s1cc(cc1/C=C(\C#N)C#N)CSc1nnc(s1)N 1.57
CCCCCCCCCCCCCCCCCC(=O)NCC1CCCO1 (centres undefined) 1.07
Cc1cc(=O)n2nc(S(C)(=O)=O)nc2[nH]1 1.27
OCCCNc1ncnc2sc3c(c12)CCC3 0.956
CN1c2ccccc2Sc2ccccc21 1.19
Cc1c([N+](=O)[O-])c(=O)n(C)c(=O)n1C 0.956
c1cncc(N2CCN(c3cccnc3)CC2)c1 1.03
C=CCNC(=O)c1c([N+](=O)[O-])cnn1C 1.23
C(=C\CSc1nnc(-c2ccccc2)c(-c2ccccc2)n1)/CSc1nnc(-c2ccccc2)c(-c2ccccc2)n1 1.02
Cc1cc(C)n(-c2nc(N3CCOCC3)nc(N3CCOCC3)n2)n1 1.09
O=C1/C(=C\c2c(N3CCOCC3)nc3ccccn3c2=O)SC(=S)N1CC1CCCO1 (centres undefined) 1.39
COn1c(=S)[nH]c2ccccc2c1=O 1.14
OCC1(CO)COC(COc2ccccc2)=N1 1.24
COc1cc(OC)c(/C=N\c2ccc(OC(F)(F)F)cc2)cc1Br 0.701
S=C(Nc1ccc(Br)cc1)Nc1cccnc1 1.11
COc1ccc(C2C3CSCC=C3C(C#N)=C(N)C2(C#N)C#N)cc1 (centres undefined) 1.12
O=C1NC(=O)C2C1C1C=Cc3ccccc3N1C2C(=O)c1ccc(F)cc1 (centres undefined) 0.997
O=C1C(=O)N(CCN2C(=O)c3ccccc3C2=O)c2ccccc21 1.14
FC(F)(F)c1cc(-c2cccs2)nc(-n2nccc2C(F)(F)F)n1 1.01
c1cc(-c2nnc(Nc3ccc4c(c3)OCCO4)o2)[nH]n1 1.22
N#Cc1c(N)nc2c(c1-c1ccco1)CCCC2 1.35
CCOC(=O)C1=C(C)NC(C)=C(C(=O)OCC)C1C(=O)O 1.18
CCc1sc2sncc2c1Br 1.03
CS(=O)(=O)N1CCc2cc(S(=O)(=O)N3CCN(Cc4ccc5c(c4)OCO5)CC3)ccc21 1.06
O=C(CCCC(=O)N/N=C/c1ccc([N+](=O)[O-])o1)N/N=C\c1ccc([N+](=O)[O-])o1 1.83
Brc1ccc2ncnc(N3CCCCC3)c2c1 0.324
CNS(=O)(=O)c1ccc(Br)s1 0.988
Cc1cc(C)c(C2C3CCC=C3C(C#N)=C(N)C2(C#N)C#N)c(C)c1 (centres undefined) 1.34
Nc1nc(=O)cc(Cl)[nH]1 0.868
O=C1/C(=C/C=C/C2=C(O)c3ccccc3S2(=O)=O)S(=O)(=O)c2ccccc21 1.26
Oc1c(Br)cc(Br)cc1/C=N\c1cc(Cl)ccc1Cl 1.04
NNC(=O)C1CC2CC1CC2C(=O)NN (centres undefined) 1.24
O=[N+]([O-])c1ccc(OS(=O)(=O)N2CCCC(C(F)(F)F)C2)cc1 (centres undefined) 1.29
N#Cc1c(NC(=S)Nc2ccccc2)sc2c1CCC2 0.964
Cc1ccc(NC(=O)OC(C)(C)C)s1 1.24
COC(=O)CSc1sc2c(O)nc(=O)[nH]c2c1C#N 0.996
NC1=NN=C(c2ccc3c(c2)OCCO3)CS1 0.813
CC1=C(C)SC(=C2Sc3nc(O)[nH]c(=O)c3S2)S1 1.05
Cn1c(=O)c2c(nc3n(CCO)c(C45CC6CC(CC(C6)C4)C5)cn23)n(C)c1=O 1.19
CN(CC12CC3CC(CC(C3)C1)C2)S(=O)(=O)c1ccc2sc(=O)[nH]c2c1 1.09
CC(C)NC(=O)C(=O)NC1CC(C)(C)NC(C)(C)C1 1.16
CCC(C)C(=O)NCC1CCCO1 (centres undefined) 1.08
C(=N/c1ccc2c(c1)OCCO2)/c1ccc(OC2CSC2)cc1 0.937
C#CCSc1nc(C)cc(C)c1C#N 1.17
CC1(C(=O)O)COCOC1 1.29
c1ccc2c(CSc3nc4ccccc4o3)cccc2c1 1.39
O=c1c2cc(O)ccc2oc2ccc(O)cc12 1.4
CCc1c(C)[nH]n(-c2nnn[nH]2)c1=O 1.13
O=S(=O)([O-])C/C(=C\c1ccc(Cl)cc1)c1cc[n+](CCO)cc1 1.24
CC1=C(N(C)CS(=O)(=O)[O][Na])CN(c2ccccc2)N1C.O 1.1
Cc1cc(S(=O)(=O)N2CCCC2)c(C)s1 1.14
CCN1CC2=C(OC(N)=C(C#N)C2c2cccs2)/C(=C/c2cccs2)C1 (centres undefined) 1.08
Cc1cc(C)[n+]2cc(S(=O)(=O)[O-])sc2n1 1.6
COc1cc(-c2nnc(S)o2)cc(OC)c1OC 1.21
Oc1ccc(Br)cc1/C=N/n1cnnc1 0.832
CC12CCC3c4ccc(O)cc4CCC3C1CCC2O (centres undefined) 1.3
FC(F)(F)c1n[nH]cc1Br 1.1
O=C1NC(=O)[C@H]2[C@@H]1[C@@H](C(=O)c1ccccc1)N1c3ccccc3C=C[C@H]21 1.22
O=C(N/N=C\c1ccc([N+](=O)[O-])o1)N/N=C\c1ccc([N+](=O)[O-])o1 1.07
CC1(C(=O)Nc2nc3c(s2)CCCCC3)CC1(Cl)Cl (centres undefined) 1.17
Nc1nonc1/C(=N\O)N1CCOCC1 1.21
O=S(=O)(c1ccc2ccccc2c1)N1CCc2cc(Br)ccc21 0.627
C#CCOc1cccc(/C=N/Nc2nncn2N)c1 1.06
O=[N+]([O-])c1cc(C(F)(F)F)cc(Cl)c1F 1.08
Cc1nc2ccccc2nc1CCl 1.12
O=c1[nH]c(=O)c2cc3c(=O)[nH]c(=O)c3cc12 1.09
OC[C@@H]1O[C@H](O[C@H]2O[C@H](CO[C@@H]3O[C@H](CO)[C@H](O)[C@H](O)[C@H]3O)[C@@H](O)[C@H](O)[C@H]2O)[C@H](O)[C@H]1O 1.07
CS/C(N)=N/N=C/c1c(O)ccc2ccccc12 0.857
C#CC(C)(CC)NC(=O)c1cc2ncc(Br)cn2n1 (centres undefined) 0.94
Fc1ccc(CN2COc3cc4c(cc3C2)OCN(Cc2ccc(F)cc2)C4)cc1 1.45

Ordered by SMILES length (rising): some entries from above.
cell-surface Lgr5 expression, inactive:
CNS(=O)(=O)c1ccc(Br)s1 0.988
NC1=NN=C(c2ccc3c(c2)OCCO3)CS1 0.813
COc1ccc(OC)c(S(=O)(=O)NCCOC23CC4CC(CC(C4)C2)C3)c1 0.832
Cn1c(=O)c2c(nc3n(CCO)c(C45CC6CC(CC(C6)C4)C5)cn23)n(C)c1=O 1.19
O=C(N/N=C\c1ccc([N+](=O)[O-])o1)N/N=C\c1ccc([N+](=O)[O-])o1 1.07

Next part.

cell-surface Lgr5 expression, active:
Cn1cccc1CC(=O)N/N=C\c1ccco1 2.22
Cc1ccc2nc(NC(=N)N)nc(C)c2c1 2.79
